Results are given in words; binding and its absence hold for the method and conditions named. Binding seen in cells or lysates may run through a third protein. A yes stands for co-enrichment or nearness to the bait. Other partners may have been found. Sequences can lack the tags named with a protein.

Chains of the proteins cited; added tags and fusions are not shown.
UniProt Q8DVD0: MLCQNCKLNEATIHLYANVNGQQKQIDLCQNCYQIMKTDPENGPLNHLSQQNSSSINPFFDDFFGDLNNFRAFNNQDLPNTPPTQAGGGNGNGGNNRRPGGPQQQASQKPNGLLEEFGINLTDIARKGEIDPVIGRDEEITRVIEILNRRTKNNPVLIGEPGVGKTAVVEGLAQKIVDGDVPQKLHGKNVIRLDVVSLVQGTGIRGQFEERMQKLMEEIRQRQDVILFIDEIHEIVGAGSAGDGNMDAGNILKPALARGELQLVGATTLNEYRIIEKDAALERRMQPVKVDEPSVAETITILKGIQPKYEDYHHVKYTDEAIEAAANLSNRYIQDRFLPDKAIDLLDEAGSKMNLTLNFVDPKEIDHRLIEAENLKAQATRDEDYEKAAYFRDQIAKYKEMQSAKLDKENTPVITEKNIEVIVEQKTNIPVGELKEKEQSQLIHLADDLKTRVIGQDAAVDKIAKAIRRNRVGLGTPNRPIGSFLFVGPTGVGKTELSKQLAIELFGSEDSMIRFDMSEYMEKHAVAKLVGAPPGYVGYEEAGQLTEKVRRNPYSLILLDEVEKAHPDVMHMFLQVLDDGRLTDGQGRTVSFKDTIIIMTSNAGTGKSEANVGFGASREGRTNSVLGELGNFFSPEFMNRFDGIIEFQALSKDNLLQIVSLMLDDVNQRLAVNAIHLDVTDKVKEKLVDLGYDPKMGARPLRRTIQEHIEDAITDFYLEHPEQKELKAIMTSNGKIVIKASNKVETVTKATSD
UniProt O07329: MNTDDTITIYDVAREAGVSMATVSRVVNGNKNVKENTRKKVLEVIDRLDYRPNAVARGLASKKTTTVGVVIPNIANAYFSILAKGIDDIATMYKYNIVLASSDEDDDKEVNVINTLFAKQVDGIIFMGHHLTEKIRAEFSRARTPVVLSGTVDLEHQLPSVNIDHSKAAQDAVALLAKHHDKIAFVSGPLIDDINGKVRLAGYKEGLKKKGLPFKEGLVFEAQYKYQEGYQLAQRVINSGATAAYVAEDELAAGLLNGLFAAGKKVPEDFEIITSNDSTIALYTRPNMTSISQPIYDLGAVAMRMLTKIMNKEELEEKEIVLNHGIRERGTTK
UniProt Q8DUI0: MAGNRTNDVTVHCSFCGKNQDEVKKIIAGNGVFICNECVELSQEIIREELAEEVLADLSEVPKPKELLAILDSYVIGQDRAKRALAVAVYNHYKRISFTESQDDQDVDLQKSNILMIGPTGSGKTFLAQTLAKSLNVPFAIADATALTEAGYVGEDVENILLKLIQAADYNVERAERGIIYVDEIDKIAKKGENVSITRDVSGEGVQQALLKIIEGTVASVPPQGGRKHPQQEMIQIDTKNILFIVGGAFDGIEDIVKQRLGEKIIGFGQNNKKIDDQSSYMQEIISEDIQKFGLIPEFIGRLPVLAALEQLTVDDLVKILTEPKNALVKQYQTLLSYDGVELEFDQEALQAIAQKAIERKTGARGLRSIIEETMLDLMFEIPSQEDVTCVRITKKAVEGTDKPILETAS

For the assay, the target named is T1, recombinant MecA (rMecA), His-tagged (Streptococcus mutans) (UniProt Q8DW33).
T1 sequence: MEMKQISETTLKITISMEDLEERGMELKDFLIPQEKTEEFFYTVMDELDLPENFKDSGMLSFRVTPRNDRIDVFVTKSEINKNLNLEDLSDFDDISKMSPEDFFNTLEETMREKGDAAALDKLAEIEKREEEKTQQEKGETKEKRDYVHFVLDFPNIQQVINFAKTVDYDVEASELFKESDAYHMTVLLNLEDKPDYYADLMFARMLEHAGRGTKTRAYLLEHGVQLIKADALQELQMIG
Nature of the assay: affinity purification with mass spectrometry; His-tagged rMecA (bait) immobilised on Ni-NTA resin, incubated with S. mutans cell lysate in KMNP buffer (2 mM MgCl2, 50 mM NaCl, 50 mM K2HPO4/KH2PO4, PMSF) overnight at 4°C; column washed, eluted under native conditions; SDS-PAGE, LC/MS; only the target purified.
In the case of ATPase ClpE (from UniProt Q8DVD0 1-753), the binding entry is given as “binds”.
The same measure for “carbon catabolite repressor protein CcpA (from UniProt O07329 1-333)”: “binds”; for ATPase ClpX (from UniProt Q8DUI0 1-410): “binds”.

Source of the values: publication PMC11656736.
